The text below walks through data of publication PMC12135451.

Chains of the proteins cited; added tags and fusions are not shown.
UniProt Q96EP0: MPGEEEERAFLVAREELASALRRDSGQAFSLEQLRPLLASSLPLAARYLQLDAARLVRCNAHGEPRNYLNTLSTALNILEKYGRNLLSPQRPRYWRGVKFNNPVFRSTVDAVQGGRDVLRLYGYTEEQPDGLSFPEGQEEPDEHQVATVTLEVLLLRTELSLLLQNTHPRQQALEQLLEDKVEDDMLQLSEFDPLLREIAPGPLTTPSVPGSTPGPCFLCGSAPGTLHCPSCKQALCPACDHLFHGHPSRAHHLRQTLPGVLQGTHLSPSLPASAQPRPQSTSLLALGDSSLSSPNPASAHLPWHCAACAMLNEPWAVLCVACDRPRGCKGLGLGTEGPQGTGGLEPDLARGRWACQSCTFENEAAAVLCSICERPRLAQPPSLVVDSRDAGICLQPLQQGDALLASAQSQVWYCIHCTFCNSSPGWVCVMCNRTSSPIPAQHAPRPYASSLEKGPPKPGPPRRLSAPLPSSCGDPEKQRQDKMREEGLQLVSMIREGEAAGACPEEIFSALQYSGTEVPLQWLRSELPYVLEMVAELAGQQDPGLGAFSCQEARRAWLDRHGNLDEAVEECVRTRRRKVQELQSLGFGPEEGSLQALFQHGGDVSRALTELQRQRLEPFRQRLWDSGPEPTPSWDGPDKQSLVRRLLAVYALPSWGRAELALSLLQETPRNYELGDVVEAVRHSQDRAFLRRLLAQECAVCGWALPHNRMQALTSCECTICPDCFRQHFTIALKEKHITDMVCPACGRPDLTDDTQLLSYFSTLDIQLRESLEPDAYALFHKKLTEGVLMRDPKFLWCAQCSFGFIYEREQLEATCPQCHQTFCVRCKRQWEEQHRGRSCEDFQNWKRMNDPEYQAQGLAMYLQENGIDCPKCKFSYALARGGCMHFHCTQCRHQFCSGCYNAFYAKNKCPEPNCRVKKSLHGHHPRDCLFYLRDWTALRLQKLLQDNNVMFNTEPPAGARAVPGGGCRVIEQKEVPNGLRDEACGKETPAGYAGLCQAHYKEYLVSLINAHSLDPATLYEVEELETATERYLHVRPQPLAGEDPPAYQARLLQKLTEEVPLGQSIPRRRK
UniProt Q13257: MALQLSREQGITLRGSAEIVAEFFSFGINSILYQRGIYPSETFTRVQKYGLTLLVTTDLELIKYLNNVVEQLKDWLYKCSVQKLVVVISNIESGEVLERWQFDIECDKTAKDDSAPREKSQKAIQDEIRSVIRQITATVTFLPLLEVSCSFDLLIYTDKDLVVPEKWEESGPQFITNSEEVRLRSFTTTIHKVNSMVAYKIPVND
UniProt P53350: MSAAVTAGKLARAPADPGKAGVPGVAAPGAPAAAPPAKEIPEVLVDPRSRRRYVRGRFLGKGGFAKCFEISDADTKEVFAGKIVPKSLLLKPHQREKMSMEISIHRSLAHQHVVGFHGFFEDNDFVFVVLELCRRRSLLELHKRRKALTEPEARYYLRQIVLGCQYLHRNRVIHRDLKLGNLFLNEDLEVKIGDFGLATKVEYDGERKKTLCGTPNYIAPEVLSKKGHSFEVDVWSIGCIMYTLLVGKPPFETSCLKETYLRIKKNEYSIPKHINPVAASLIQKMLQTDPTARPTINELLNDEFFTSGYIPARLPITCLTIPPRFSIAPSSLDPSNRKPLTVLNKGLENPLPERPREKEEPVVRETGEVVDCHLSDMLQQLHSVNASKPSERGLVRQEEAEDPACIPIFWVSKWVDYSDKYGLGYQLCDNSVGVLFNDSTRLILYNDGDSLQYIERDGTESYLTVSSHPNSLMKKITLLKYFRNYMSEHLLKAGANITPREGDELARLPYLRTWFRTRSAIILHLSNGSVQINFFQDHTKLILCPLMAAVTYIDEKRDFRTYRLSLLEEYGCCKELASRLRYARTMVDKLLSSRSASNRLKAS

One assay has as its target Flag-HOIP (human) (UniProt Q96EP0). Nature of the assay: co-IP; asynchronous 293T cells transfected with Flag- and HA-tagged constructs; anti-Flag and/or anti-HA IP; lysis in EBC buffer (50 mM Tris pH 7.5, 120 mM NaCl, 0.5% NP-40), four washes with NETN buffer; immunoblot.
The target in a further assay is T1, Flag-SHARPIN (UniProt Q9H0F6).
T1 sequence: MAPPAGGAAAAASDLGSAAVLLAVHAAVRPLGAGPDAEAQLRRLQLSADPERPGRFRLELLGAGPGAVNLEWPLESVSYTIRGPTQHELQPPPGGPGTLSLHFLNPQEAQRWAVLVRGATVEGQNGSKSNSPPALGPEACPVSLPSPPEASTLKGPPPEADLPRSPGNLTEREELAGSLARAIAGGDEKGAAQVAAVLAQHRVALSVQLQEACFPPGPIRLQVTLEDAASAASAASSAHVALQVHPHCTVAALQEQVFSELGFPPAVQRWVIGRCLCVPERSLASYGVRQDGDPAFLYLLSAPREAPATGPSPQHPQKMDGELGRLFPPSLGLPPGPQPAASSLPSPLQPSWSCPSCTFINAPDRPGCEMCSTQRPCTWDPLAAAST
The assay is described as above.

For the next assay, the target named is HA-MAD2 (human) (UniProt Q13257). Nature of the assay: co-IP; 293T cells transfected with Myc-p31^comet and HA-PLK1 or HA-MAD2, with or without His-UB and Flag-HOIP; anti-HA IP; immunoblot.
The target of another assay is HA-PLK1 (UniProt P53350). The assay is described as above.

No constants are given. Whether binding was seen depends on the method and setting. Binding seen in cells or lysates may run through a third protein. Some binding calls cover weakened binding; strength is not graded here. Where a sequence is shown, tags or fusion partners need not be part of it.

B1: HA-TRIP13 (enzyme, UniProt Q3UA06 1-432)
chain: MDEAVGDLKQALPCVAESPAVHVEVLQRSGSTAKKEDIKSSVYRLLNRHNIVFGDYVWTEFDDPFLSRNVQSVSIVDTELKAKDPQPIDLSACTIALHIFQLNEEGPSSENLDEETENIIAASHWVLPAAEFHGLWDSLVYDVEVKSHLLDYVMTTVLFSDKNVDSNLITWNRVVLLHGPPGTGKTSLCKALAQKLTIRLSSRYRYGQLIEINSHSLFSKWFSESGKLVTKMFQKIQDLIDDKEALVFVLIDEVESLTAARNACRAGAEPSDAIRVVNAVLTQIDQIKRHSNVVILTTSNITEKIDVAFVDRADIKQYIGPPSAAAIFKIYLSCLEELMKCQIIYPRQQLLTLRELEMIGFIENNVSKLSLLLSEISRKSEGLSGRVLRKLPFLAHALYIQAPSVTIEGFLQALSLAVDKQFEEKKKLSAYV
For B1, in the assay with Flag-HOIP (human), the binding result was “no binding”.

B2: HA-p31^comet (protein, UniProt Q15013 1-274)
chain: MAAPEAEVLSSAAVPDLEWYEKSEETHASQIELLETSSTQEPLNASEAFCPRDCMVPVVFPGPVSQEGCCQFTCELLKHIMYQRQQLPLPYEQLKHFYRKPSPQAEEMLKKKPRATTEVSSRKCQQALAELESVLSHLEDFFARTLVPRVLILLGGNALSPKEFYELDLSLLAPYSVDQSLSTAACLRRLFRAIFMADAFSELQAPPLMGTVVMAQGHRNCGEDWFRPKLNYRVPSRGHKLTVTLSCGRPSIRTTAWEDYIWFQAPVTFKGFRE
As to B2, the binding result with Flag-HOIP (human) is listed as “binds”; with Flag-SHARPIN, “no binding”.

B3: Myc-p31^comet (protein, UniProt Q15013 1-274)
chain: B2 chain
Regarding B3, the binding result with HA-MAD2 (human) and in the assay with HA-PLK1 was “binds” each time.
